Test results taken from PubChem BioAssay AID1487 (National Center for Advancing Translational Sciences (NCATS), 2009).
The list shows a part of the results. The main result of the screen is listed elsewhere. These columns were measured beside it and carry no call. Most of these compounds were active or inconclusive in the main read-out, so they are no random draw. Potencies come from curve fits of mixed quality, noted in brackets.

Assay: qHTS Assay for Modulators of Lamin A Splicing
Settings: HeLa LMNA splicing GFP/RFP minigene ratio, 48 h
How it was run: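 S3 HeLa cells stably expressing lamin A-EGFP splicing minigene plus DsRed2, 600 cells/well, 48 h compound exposure at 37C. Laser-scanning cytometry; analysed as GFP (500-530 nm)/RFP (575-640 nm) total intensity ratio; 0.5% DMSO vehicle.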

[1] = measured here: GFP splicing reporter channel
[2] = measured here: RFP viability control channel

SMILES | AC50 [1] | AC50 [2]
CCC(=O)n1nc(-c2cccnc2)nc1NCc1ccc(F)cc1 | 8.91 µM [falling, partial curve] | 3.98 µM [falling, partial curve, poor fit]
CCc1ccc(NC(=O)Cn2ccn(Cc3ccccc3OC)c(=O)c2=O)cc1 | 6.31 µM [rising, partial curve] | 3.98 µM [rising, full curve, poor fit]
CCN(CC)CCCN(Cc1cc2cc3c(cc2[nH]c1=O)OCCO3)C(=O)Nc1ccc(F)cc1 |  | 11.2 µM [rising, single point]
CC(C)(C)OC(=O)N1CCN(c2ccc([N+](=O)[O-])cc2)CC1 |  | 10 µM [rising, single point]
CCc1ccc(NC(=O)N(Cc2ccco2)C(C)c2cccs2)cc1 (stereo not given) | 0.00562 µM [falling, full curve, poor fit] | 
CCn1nc(C(=O)Nc2cccc(C(F)(F)F)c2)c(Cl)c1Cl | 0.0501 µM [rising, full curve] | 
CCCCCOc1ccc(C2NC(=O)NC2=O)cc1 (stereo not given) |  | 5.62 µM [rising, full curve]
O=C(Cc1ccc(Cl)cc1)Nc1nnc2n1CCS2 |  | 5.62 µM [rising, partial curve, poor fit]
Cc1ccc(-n2nc(C)c3c(C)cc(=O)n(CC(=O)N4CCCc5ccccc54)c32)cc1 | 0.0562 µM [falling, full curve] | 0.00708 µM [falling, full curve, poor fit]
Cc1cccc(NC(=O)c2ccc(C(=O)Nc3cccc(C)c3)nc2)c1 |  | 14.1 µM [rising, single point]
CN(Cc1ccccc1)Cc1c[nH]c2ccccc12 |  | 14.1 µM [rising, single point]
CC1(c2ccc3ccccc3c2)NC(=O)N(CC(=O)Nc2cccc(S(=O)(=O)N3CCOCC3)c2)C1=O (stereo not given) | 20 µM [rising, single point] | 31.6 µM [rising, single point]
CCOC(=O)c1c(C)nc2c(c1C)/C(=N/O)CC(C)(C)C2 |  | 20 µM [rising, single point]
Cc1cc(C)c(NS(=O)(=O)c2ccc(-c3cnc(C4CC4)o3)cc2)c(C)c1 | 17.8 µM [falling, single point] | 0.0891 µM [rising, full curve]
O=C(Cc1ccccc1[N+](=O)[O-])Nc1ccccc1C(=O)N1CCCC1 | 5.62 µM [rising, single point] | 
C#C[C@@]1(O)CC[C@@H]2[C@@H]3CCC4=CC(=O)CC[C@@H]4[C@H]3CC[C@]21CC | 8.91 µM [falling, partial curve] | 7.94 µM [falling, partial curve]
COc1ccc(C(=O)c2ccc(CC#N)s2)cc1 |  | 12.6 µM [rising, partial curve]
O=C(COc1ccc2ccccc2c1)N1CCN(c2ccccc2O)CC1 |  | 20 µM [rising, single point]
OC(COc1ccc2c(c1)OCO2)CN1CCN(c2ccccc2)CC1 (stereo not given) | 0.316 µM [falling, full curve, poor fit] | 
COc1ccccc1OCC(=O)NNC(=S)NC(=O)c1ccco1 |  | 35.5 µM [rising, single point]
COc1cc(NC(=S)NC(=O)c2ccccc2C)ccc1NC(=O)c1cccs1 |  | 2 µM [rising, full curve, poor fit]
COc1ccc(CCNC(=O)c2cc(S(=O)(=O)N(C)c3ccccc3)ccc2Cl)cc1 | 11.2 µM [rising, partial curve] | 22.4 µM [rising, single point]
O=c1c(-c2nnc(SCc3ccc(Cl)cc3Cl)o2)cccn1Cc1ccccc1 | 25.1 µM [falling, partial curve, poor fit] | 14.1 µM [falling, partial curve]
CCCSc1nnc(Sc2nnnn2-c2ccccc2)s1 | 31.6 µM [falling, single point] | 35.5 µM [falling, single point]
CCC(=Nc1ccc(Cc2ccncc2)cc1)c1c(O)n(C)c(=O)n(C)c1=O | 0.0112 µM [falling, full curve, poor fit] | 
O=C(NCCCN1CCCC1=O)c1ccc2c(=O)n(-c3ccc(F)cc3)c(=S)[nH]c2c1 | 1.26 µM [rising, full curve] | 1.41 µM [rising, full curve, poor fit]
Cn1nc(CC(=O)N2CCN(c3ccccc3)CC2)c2ccccc2c1=O |  | 11.2 µM [rising, single point]

SMILES | AC50 [1] | AC50 [2]
Cc1ccc(NC(=O)C(=O)NCC(c2cccnc2)N2CCOCC2)cc1Cl (stereo not given) | 15.8 µM [falling, partial curve] | 14.1 µM [falling, partial curve]
Fc1cccc(C2CCCCN2Cc2nc(C3CC3)no2)c1 (stereo not given) |  | 35.5 µM [falling, single point]
O=C(CSc1ncnc2c1cnn2-c1ccccc1Cl)N1CCN(C(=O)c2ccco2)CC1 |  | 25.1 µM [rising, single point]
COc1ccc(C(=O)Nc2nc3c(s2)CCCC3)cc1S(=O)(=O)N1CCCc2ccccc21 | 3.98 µM [rising, full curve] | 5.62 µM [rising, full curve]
CSC1=C(C#N)C2(CCCC2)C(C#N)=C(N)N1 | 14.1 µM [rising, single point] | 
CCCCOc1ccc(C(C)NC(=O)c2cccc(Nc3nc4ccccc4n4nnnc34)c2)cc1 (stereo not given) |  | 0.794 µM [falling, full curve]
CCc1cccc(C)c1NC(=O)CCCSc1nc2ccccc2s1 | 11.2 µM [rising, partial curve] | 17.8 µM [rising, single point]
COc1ccccc1CNc1nc(-c2ccc(C(=O)N(C)C)cc2)nc2ccccc12 | 22.4 µM [falling, partial curve] | 22.4 µM [falling, single point]
COc1cccc(NS(=O)(=O)c2cc(C)sc2C)c1 |  | 35.5 µM [rising, single point]
COc1ccc(C(=O)COC(=O)/C=C/c2ccc(S(=O)(=O)Nc3cccc(S(N)(=O)=O)c3)cc2)cc1 | 5.62 µM [rising, single point] | 
COC(=O)[C@@]1(Cc2ccc(F)cc2)[C@H]2c3cc(C(=O)N4CCCC4)n(CCc4ccc(O)c(O)c4)c3C[C@H]2CN1C(=O)c1ccccc1 | 7.94 µM [rising, partial curve] | 14.1 µM [rising, partial curve]
Cc1cccc2sc(N(CCCN(C)C)C(=O)c3ccco3)nc12 | 31.6 µM [falling, partial curve, poor fit] | 
CN(C)c1cc2c(cc1NS(=O)(=O)c1ccccc1)n(C)c(=O)n2C | 0.02 µM [rising, full curve, poor fit] | 
O=C(C1CC1)N1CCc2cc(Br)cc(S(=O)(=O)NC3CCCCC3)c21 |  | 3.16 µM [rising, partial curve, poor fit]
COCCn1c(C)cc(C(=O)CSc2nc(C)cc(C)c2C#N)c1C |  | 15.8 µM [rising, single point]
CN1/C(=C\C(=O)Nc2ccc(Cl)cc2)C(C)(C)c2ccccc21 |  | 15.8 µM [rising, single point]
CCOC(=O)c1ccc(NC(=O)CSc2nnc(-c3ccncc3)n2-c2ccccc2)cc1 | 0.0562 µM [falling, full curve, poor fit] | 
COc1cccc(-c2nc3ccc([N+](=O)[O-])cc3o2)c1 | 0.398 µM [rising, full curve] | 0.631 µM [rising, full curve, poor fit]
CCN(C(=O)CSc1nc2ccccc2n1Cc1ccccc1C#N)c1ccccc1 | 0.141 µM [falling, partial curve] | 
O=C(Nc1cccc(C(F)(F)F)c1)c1cccnc1NCCc1ccccc1 | 14.1 µM [rising, single point] | 12.6 µM [rising, partial curve]
Cc1ccc2c(C)c(C(=O)NCC(c3ccc(Cl)cc3)N3CCOCC3)oc2c1 (stereo not given) | 3.16 µM [rising, partial curve, poor fit] | 20 µM [rising, partial curve, poor fit]
O=C(N/C=N/OCc1ccc(Cl)cc1Cl)NOCc1c(Cl)cccc1Cl |  | 0.891 µM [rising, single point]
O=C(Cc1cn(Cc2cccc(Cl)c2)c2ccccc12)N1CCCC1 | 12.6 µM [rising, partial curve] | 35.5 µM [rising, partial curve]
CNC(=S)N1CCn2cccc2C1c1cc(OC)c(OC)c(OC)c1 (stereo not given) | 1.26 µM [rising, full curve, poor fit] | 
Cc1ccc(N2C(=O)C3CCC(C)(C2=O)C3(C)C)cc1C (stereo not given) |  | 0.02 µM [falling, full curve, poor fit]
CCOC(=O)N1CCC(Nc2cc(C)nc3c(-c4ccccc4OC)c(C)nn23)CC1 | 28.2 µM [rising, partial curve, poor fit] | 35.5 µM [rising, partial curve]
C[C@@H]1O[C@H](O[C@@H]2[C@H](C)O[C@H](O[C@@H]3[C@H](C)O[C@H](O[C@H]4CC[C@]5(C)[C@@H](CC[C@@H]6[C@H]5C[C@@H](O)[C@]5(C)[C@@H](C7=CC(=O)OC7)CC[C@]65O)C4)C[C@@H]3O)C[C@@H]2O)C[C@H](O)[C@@H]1O | 0.251 µM [falling, full curve] | 0.02 µM [falling, full curve]

Full records, quoted from the list. Order of values: AC50 [1]	AC50 [2]
Cc1ccc(NC(=O)C(=O)NCC(c2cccnc2)N2CCOCC2)cc1Cl (stereo not given) is entered as 15.8 µM [falling, partial curve]	14.1 µM [falling, partial curve]
CCOC(=O)N1CCC(Nc2cc(C)nc3c(-c4ccccc4OC)c(C)nn23)CC1 is entered as 28.2 µM [rising, partial curve, poor fit]	35.5 µM [rising, partial curve]
